According to US4407746A (G. D. Searle & Co., priority 1981, dated 1983):

Assay: general procedure: solution-phase peptide synthesis; isobutyl chloroformate / N-methylmorpholine (mixed anhydride)
Settings: late stage modification step

## Tyr-D-Met-Gly-Phe-DL-cis-3-aminocyclohexanecarboxylic Acid Methyl Ester HCl
  step yield: 91%
